Assay results reported in patent US20020187124A1.
Results are given in words; binding and its absence hold for the method and conditions named. Some binding calls cover weakened binding; strength is not graded here.

Protein sequences, listed by entry. Tags and fused reporters are not part of them. Lines headed by an entry give the natural chain unless they say otherwise; changes in a name come on top.
UniProt P02763: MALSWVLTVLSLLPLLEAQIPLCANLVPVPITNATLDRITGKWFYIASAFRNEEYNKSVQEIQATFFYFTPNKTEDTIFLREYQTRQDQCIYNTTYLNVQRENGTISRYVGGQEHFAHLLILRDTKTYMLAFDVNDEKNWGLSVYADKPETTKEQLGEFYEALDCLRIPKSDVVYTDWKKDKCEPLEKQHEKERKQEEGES

Molecular target: T1, asialoglycoprotein receptor on Hep G2 human hepatoma cells (human) (UniProt P07306+P07307)
T1 sequence (looked up) 1: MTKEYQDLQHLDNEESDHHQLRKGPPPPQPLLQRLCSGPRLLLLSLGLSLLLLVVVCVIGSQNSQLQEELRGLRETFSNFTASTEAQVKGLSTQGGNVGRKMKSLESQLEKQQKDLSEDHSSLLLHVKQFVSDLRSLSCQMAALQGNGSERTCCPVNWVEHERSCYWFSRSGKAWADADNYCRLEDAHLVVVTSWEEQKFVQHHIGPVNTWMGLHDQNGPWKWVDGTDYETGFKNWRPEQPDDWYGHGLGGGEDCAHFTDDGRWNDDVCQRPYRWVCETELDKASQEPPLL
T1 sequence (looked up) 2: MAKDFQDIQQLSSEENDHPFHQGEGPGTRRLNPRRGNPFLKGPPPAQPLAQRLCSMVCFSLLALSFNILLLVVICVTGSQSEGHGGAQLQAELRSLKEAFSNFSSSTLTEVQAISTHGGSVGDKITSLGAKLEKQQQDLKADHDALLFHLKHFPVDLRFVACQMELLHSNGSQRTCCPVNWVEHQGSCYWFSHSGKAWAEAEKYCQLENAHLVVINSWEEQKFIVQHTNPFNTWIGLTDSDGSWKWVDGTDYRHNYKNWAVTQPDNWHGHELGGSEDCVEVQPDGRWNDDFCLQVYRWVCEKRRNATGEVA
Experiment: radiolabelled ligand on hepatoma cell lines; Hep G2 chosen as a receptor-expressing line

Q: “labeled asialo-orsomucoid (from UniProt P02763 19-201) (ligand)” was tested. Which binding did it give?
A: binds
